Results taken from the supplement of paper PMC10735217.
Counter-ions that a name gives are not always drawn. This is one part of the list. This data set is noisy: repeats of one test often differ as much as different tests do.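 Human kidney-derived cells stably carry a construct in which eight TEAD-binding elements drive luciferase, measured by luminescence in a drug-repurposing library screen. A hit is any compound whose signal exceeds the plate mean by more than five robust Z scores.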

System: HEK293A TEAD-LUC reporter
Assay: TEAD-luciferase reporter activity (YAP activation), robust Z score vs plate; higher = stronger YAP/TEAD activation
Details: 24 h

| Structure (SMILES) | TEAD-luciferase reporter activity (compound concentration: 200 nM) | TEAD-luciferase reporter activity (compound concentration: 2 uM) | TEAD-luciferase reporter activity (compound concentration: 10 uM) |
| --- | --- | --- | --- |
| O=C1OC(OC(=O)c2cccnc2Nc2cccc(C(F)(F)F)c2)c2ccccc21 (stereo unspecified) [talniflumate] | inactive: -0.927 | inactive: -0.733 | inactive: -0.956 |
| CCN(CC)CCOc1c(Br)cccc1CO | inactive: 1.92 | inactive: 0.862 | inactive: -0.218 |
| NC(=O)CCC/N=C(\c1ccc(Cl)cc1)c1cc(F)ccc1O [progabide] | inactive: -2.41 | inactive: -0.357 | inactive: 2.23 |
| COC(=O)COc1ccc(S(=O)(=O)NCCc2ccccc2)cc1 | inactive: 2.03 | inactive: -0.716 | inactive: 1.38 |
| NS(=O)(=O)Nc1ncnc(OCCOc2ncc(Br)cn2)c1-c1ccc(Br)cc1 | inactive: -0.839 | inactive: -1.3 | inactive: 0.855 |
| N#CC(c1ccc(Cl)cc1)c1ccc(-n2ncc(=O)[nH]c2=O)cc1Cl (stereo unspecified) [clazuril] | inactive: -1.88 | inactive: 0.0436 | inactive: 0.72 |
| CC(C(=O)O)c1cccc(Oc2ccccc2)c1 (stereo unspecified) [Fenoprofen calcium] | inactive: -1.48 | inactive: -0.0851 | inactive: 0.965 |
| OCC1C[O][Zn][O]1 (stereo unspecified) [zinc glycerolate] | inactive: -0.0653 | inactive: -1.12 | inactive: -1.16 |
| C[C@H](CS)C(=O)N1C[C@@H](Sc2ccccc2)C[C@H]1C(=O)O [Zofenoprilat] | inactive: -0.363 | inactive: -0.273 | inactive: -0.995 |
| CCC(=O)N1Cc2ccccc2CC2(CCCN2Cc2ccc(OC)cc2)C1 (stereo unspecified) | active: 5.19 | – | inactive: 1.49 |
| O=C(O)CN1CCN(CC(=O)O)CCN(CC(=O)O)CCN(CC(=O)O)CC1 [Gadoteric acid] | inactive: 1.24 | inactive: 0.215 | inactive: 0.809 |
| C[C@]1(CO)C2CC[C@@]3(CO3)[C@@H](C/C=C3/C(=O)OC[C@H]3OC(=O)/C=C/c3ccccc3)[C@]2(C)CC[C@H]1O (stereo partly specified) | inactive: -0.514 | inactive: -0.242 | inactive: 0.0649 |
| CNCc1ccc(OC)c([C@@]2(N3CCC[C@H]3c3ncco3)C(=O)N(S(=O)(=O)c3ccc(OC)cc3)c3ccc(Cl)cc32)c1 | inactive: -0.16 | inactive: 1.08 | inactive: -1.78 |
| O=C(Nc1ccc(Cl)c(S(=O)(=O)N2CCNCC2)c1O)Nc1cccc(F)c1Cl [Elubrixin tosylate] | inactive: -0.709 | inactive: -0.321 | inactive: 4.94 |
| CC(=O)Nc1nnc(S(N)(=O)=O)s1 [Acetazolamide] | – | inactive: -1.73 | – |
| CC(=O)Nc1nnc(S(N)(=O)=O)s1 | inactive: -0.522 | – | inactive: -0.928 |
| Cc1cc(NS(=O)(=O)c2ccc(/N=C/c3ccccc3O)cc2)no1 | inactive: -0.842 | inactive: 0.972 | inactive: 1.38 |
| C[C@@H](Cc1ccc(-c2ncc(NC(=O)C(F)(F)F)o2)cc1)N1CC(c2cccc(Cl)c2)OC1=O (stereo partly specified) | inactive: -1.4 | inactive: -0.069 | inactive: 2.26 |
| CCC1(c2c[nH]cn2)Cc2ccc(F)cc2C1 (stereo unspecified) | inactive: 0.392 | inactive: -0.733 | inactive: -0.635 |
| CC(C)[C@@H]1CC[C@H](C)C[C@H]1OCC(=O)Nc1cc(Oc2ccc(C(=O)O)cc2)ccc1[N+](=O)[O-] | inactive: -0.369 | inactive: -0.79 | inactive: 1.72 |
| CC1NCCC1c1cnc[nH]1 (stereo unspecified) | inactive: -0.0812 | inactive: -1.54 | inactive: 1.68 |
| CC(C)(C)/[N+]([O-])=C/c1ccc(S(=O)(=O)[O-])cc1S(=O)(=O)[O-] [Disufenton sodium] | inactive: -1.33 | inactive: -0.597 | inactive: 2.58 |
| C[C@@H]1C[C@H]2[C@@H]3CCC4=CC(=O)C=C[C@]4(C)[C@@]3(F)[C@@H](O)C[C@]2(C)[C@@]1(O)C(=O)COP(=O)([O-])[O-] [Dexamethasone sodium phosphate] | inactive: 0.71 | inactive: 1.27 | inactive: 1.32 |
| CC(Cc1c[nH]cn1)/N=C(\c1ccccc1)c1ccccc1O (stereo unspecified) | inactive: -0.974 | inactive: -1.4 | inactive: -0.657 |
| O=C(O)CN1CCN(C(c2ccccc2)c2cccc(C(F)(F)F)c2)CC1 (stereo unspecified) [Tilapertin] | inactive: -0.611 | inactive: 0.639 | inactive: 0.999 |
| CCCCN1CCCCC1C(=O)Nc1c(C)cccc1C (stereo unspecified) [bupivacaine, Durect-2] | inactive: -0.483 | inactive: -1.21 | inactive: -0.383 |
| CCOC(=O)[C@H]1CC2(CCN(C(=O)[C@@H](CCCc3ccccc3)NC(=O)C(C)(C)N)CC2)c2ccccc21 | inactive: 0.38 | inactive: -0.339 | inactive: 0.611 |
| O=C1NCCN1CCN1CCN([C@@H]2C[C@@H](c3ccc(F)cc3)c3ccccc32)CC1 | inactive: 0.98 | inactive: 0.462 | inactive: 2.2 |

Single entries from above.
Value for CC(=O)Nc1nnc(S(N)(=O)=O)s1 under TEAD-luciferase reporter activity (compound concentration: 200 nM): inactive: -0.522
Value for OCC1C[O][Zn][O]1 (stereo unspecified) [zinc glycerolate] under TEAD-luciferase reporter activity (compound concentration: 2 uM): inactive: -1.12
Value for NC(=O)CCC/N=C(\c1ccc(Cl)cc1)c1cc(F)ccc1O [progabide] under TEAD-luciferase reporter activity (compound concentration: 10 uM): inactive: 2.23
Value for COC(=O)COc1ccc(S(=O)(=O)NCCc2ccccc2)cc1 under TEAD-luciferase reporter activity (compound concentration: 10 uM): inactive: 1.38
Value for O=C1OC(OC(=O)c2cccnc2Nc2cccc(C(F)(F)F)c2)c2ccccc21 (stereo unspecified) [talniflumate] under TEAD-luciferase reporter activity (compound concentration: 10 uM): inactive: -0.956

Additional records.

| Structure (SMILES) | TEAD-luciferase reporter activity (compound concentration: 200 nM) | TEAD-luciferase reporter activity (compound concentration: 2 uM) | TEAD-luciferase reporter activity (compound concentration: 10 uM) |
| --- | --- | --- | --- |
| CCCCCCC(COC(=O)c1cccnc1)(COC(=O)c1cccnc1)COC(=O)c1cccnc1 | inactive: 0.885 | inactive: 0.919 | inactive: -0.996 |
| COCC(=O)Nc1cc(Sc2ccccc2)ccc1N/C(=N\C(=O)OC)NC(=O)OC [Febantel] | inactive: 1.53 | inactive: -1.04 | inactive: 0.768 |
| CC(C)(C)c1ccc2c(S(=O)(=O)[O-])c(C(C)(C)C)ccc2c1 | inactive: -0.25 | inactive: 2.1 | inactive: -0.845 |
| CC(C)(C)CCCCCC(=O)[O][Pt-2]1([O]C(=O)CCCCCC(C)(C)C)[NH2+][C@H]2CCCC[C@@H]2[NH2+]1 [close analog of NDDP] | – | inactive: -0.615 | – |
| CC(C)(C)CCCCCC(=O)[O][Pt-2]1([O]C(=O)CCCCCC(C)(C)C)[NH2+][C@H]2CCCC[C@@H]2[NH2+]1 | inactive: -2.92 | – | inactive: -1.48 |
| CCCCCCCCCCCCCCC1(C(=O)OC)CO1 (stereo unspecified) | inactive: -1.01 | inactive: -0.503 | active: 5.66 |
| C[C@@]1(F)[C@H](O)[C@@H](CO)O[C@H]1n1ccc(N)nc1=O | inactive: -1.54 | inactive: -0.506 | inactive: -0.778 |
| COc1ccc(NC(C)=O)c(NS(=O)(=O)c2ccc(F)c(F)c2F)c1 | inactive: -0.176 | inactive: -0.671 | inactive: -1.61 |
| CC12C=CC(=O)C=C1CCC1C2C(=O)CC2(C)C1CCC2(O)C(=O)CO (stereo unspecified) [Prednisone] | inactive: -0.458 | – | inactive: 3.47 |
| CSCC[C@H](NC(=O)[C@H](CC(C)C)NC(=O)CNC(=O)[C@H](Cc1ccccc1)NC(=O)[C@H](Cc1ccccc1)NC(=O)[C@H](CCC(N)=O)NC(=O)[C@H](CCC(N)=O)NC(=O)[C@@H]1CCCN1C(=O)[C@H](CCCCN)NC(=O)[C@@H]1CCCN1C(=O)[C@@H](N)CCCNC(=N)N)C(N)=O [Substance P] | inactive: -1.26 | inactive: -0.527 | inactive: -0.199 |
| CC1(C)CC(C)(C)CC(C)(N)C1 [Neramexane hydrochloride] | inactive: -0.358 | inactive: -1.41 | inactive: -0.656 |
| NS(=O)(=O)c1ccc(S(=O)(=O)Nc2cccc3c(Cl)c[nH]c23)cc1 [indisulam] | inactive: 0.162 | active: 14.5 | active: 11.1 |
| COc1ccc(S(=O)(=O)Nc2nnc(CC(C)C)s2)cc1 | inactive: 0.859 | inactive: -0.0472 | inactive: -1.55 |
| COc1cccc([C@@H](C)NCCCc2ccccc2Cl)c1 [Tecalcet hydrochloride] | inactive: -2.21 | inactive: -0.96 | inactive: 1.36 |
| O=C(c1ccccc1)c1ccc2n1CCC2C(=O)O (stereo unspecified) | inactive: -2.65 | – | inactive: -0.998 |
| O=C(c1ccccc1)c1ccc2n1CCC2C(=O)O (stereo unspecified) [ketorolac] | – | inactive: -1.86 | – |
| CC(=O)Nc1ccc(O)cc1OC[C@@](C)(O)CNC1CCN(Cc2ccc(Cl)cc2)CC1 | inactive: -1.89 | inactive: 0.477 | inactive: 1.13 |
| CN(C)c1cccc2c(S(=O)(=O)Nc3ccc(NC(=O)C(C)(C)CO)cc3)cccc12 [Tomeglovir] | inactive: -0.957 | inactive: 0.914 | inactive: 0.404 |
| CCOCCOC(=O)C(=O)Nc1nc(-c2cc(C)no2)cs1 | inactive: -1.91 | inactive: -0.437 | inactive: -0.626 |
| CCOC(=O)CCc1cc(Cl)ccc1C(=O)CCCNC(C)=O | inactive: 0.441 | inactive: -0.00298 | inactive: -0.524 |
| COc1ccc(CN(CCN(C)C)c2ncccn2)cc1 | inactive: -0.969 | inactive: 1.23 | inactive: 0.029 |
| CNCC(O)c1cccc(NS(C)(=O)=O)c1 (stereo unspecified) | inactive: -0.077 | inactive: -1.15 | inactive: -0.29 |
| CCc1ccc2c(c1)C=C(C(=O)O)[C@H](C(F)(F)F)O2 | inactive: -1.55 | inactive: -0.19 | inactive: 0.225 |
| CN(C/C=C/c1ccccc1)Cc1cccc2ccccc12 [Naftifine hydrochloride] | inactive: -1.14 | inactive: 0.577 | inactive: -1.43 |
| O=C(c1ccc(F)cc1)N1CCN(C(c2ccccc2)c2ccccc2)CC1 | inactive: -0.674 | inactive: -1.97 | inactive: -1.69 |
| C[C@@H](c1ncncc1F)[C@](O)(Cn1cncn1)c1ccc(F)cc1F | inactive: -0.547 | – | inactive: -0.155 |
| C[C@@H](c1ncncc1F)[C@](O)(Cn1cncn1)c1ccc(F)cc1F [voriconazole] | – | inactive: -1.45 | – |
